This note sets out measurements from patent US7060673B2 (LG Household and Health Care Ltd., priority 2001, dated 2006).

Where a sequence shows no end group, the ends are not given.

The series is described as follows: general procedure: Fmoc solid-phase peptide synthesis; HMP resin; 1-hydroxy-benzotriazole (HOBT). Particulars: whole synthesis, scale 0.25 mmol.

With KKKKKKKKKGKH, the isolated yield result was “approximately 30.5%”.
